Screen size: about 350,000 compounds; about 6,000 (1.7%) were called active. The shares of active, inactive and inconclusive entries below differ from those in the screen. No stated cut-off is given here; in the data, active means CPE inhibition above about 20% (passing the limit was not always enough); inconclusive means no clear call, values can overlap the other calls; tested in BHK-21 cells.
assay: protection of cells from dengue 2 killing – plate reader, single concentration, primary screen (AID 651640); conditions: DENV2-infected cells, cytopathic effect rescue, at 9.99 µM, active compounds read high;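 further: 0% = median of neutral control wells and 100% = median of positive control wells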

| SMILES | CPE inhibition |
| --- | --- |
| COc1ccc2c(C)c(CCC(=O)NC3CC3)c(=O)oc2c1C | active: 63.2% |
| Cc1ccc(C2C(C(=O)c3ccco3)=C(O)C(=O)N2c2ncccn2)cc1 (centres undefined) | inconclusive: 42.9% |
| COc1ccc(CCN2CCC(CN3C(=S)NC[C@@H]3CC(C)C)CC2)cc1OC | inconclusive: 26.3% |
| CS(=O)(=O)N[C@@H]1C[C@@H]2O[C@H](CO)CC[C@@H]2O[C@@H]1CCc1ccc(/C=C/c2ccccc2)cc1 | inconclusive: 27.2% |
| O=C(Cn1cc(COc2ccccc2C(F)(F)F)nn1)c1ccc(O)cc1 | inconclusive: 60.2% |
| Cc1ccc(S(=O)(=O)N(C)C[C@H]2Oc3ccc(NC(=O)Nc4ccc(C(F)(F)F)cc4)cc3C(=O)N([C@H](C)CO)C[C@H]2C)cc1 | active: 44.1% |
| COc1ccc(NC(=O)N(C)C[C@H]2Oc3ccc(NS(C)(=O)=O)cc3C(=O)N([C@@H](C)CO)C[C@H]2C)cc1 | inconclusive: 29.9% |
| COc1ccc2c(c1)C(=O)N(CCc1ccc(S(=O)(=O)NC(=O)NC3CCCCC3)cc1)C(=O)C2(C)C | inconclusive: 45.4% |
| C#Cc1cccc(C(=O)NC2CCCN(C3Cc4ccccc4C3)C2)c1 (centres undefined) | inconclusive: 22.2% |
| CC[C@H](NC(=O)/C=C/[C@H]1O[C@@H](n2cc(C)c(=O)[nH]c2=O)C[C@@H]1O)c1ccccc1 | inconclusive: 61.3% |
| CC(=O)N(C)C[C@H]1Oc2ncc(-c3ccccc3C)cc2C(=O)N([C@H](C)CO)C[C@@H]1C | inactive: 2.03% |
| CCC(=O)N1[C@H](CO)[C@@H](c2ccccc2)[C@H]1CN(C(C)C)S(C)(=O)=O | inactive: -0.996% |
| O=C(NCCCN1CCOCC1)[C@@H]1[C@@H](CO)[C@@H]2Cn3c(cccc3=O)[C@H]1N2C(=O)C1CCCC1 | inconclusive: 32.6% |
| O=C(N[C@H]1CC[C@H](CC(=O)N2CCOCC2)O[C@@H]1CO)c1ccc2c(c1)OCO2 | inconclusive: 30.6% |
| O=C(NCc1ccco1)C1(S(=O)(=O)c2ccccc2)CC=CC1 | active: 40.6% |
| Cc1cccc(S(=O)(=O)N2C[C@H]3[C@@H](c4ccccc42)[C@H](CO)N3C(=O)CC2CC2)c1 | inconclusive: 43.6% |
| Cc1cc(C)n2nc(C(=O)Nc3c(C)nn(Cc4ccc(F)cc4)c3C)cc2n1 | inconclusive: 20% |
| Cc1ccsc1C1Nc2ccccc2-c2nc3ccccc3n21 (centres undefined) | inactive: 8.09% |
| CN1OC[C@@H]2CN(C(=O)CCc3ccccc3)[C@H](c3cccc(Oc4ccccc4)c3)C[C@@H]21 | inconclusive: 78% |
| CCCNC(=O)Nc1ccc2c(c1)C(=O)N(C)[C@H]1CC[C@@H](CC(=O)OC)O[C@@H]1CO2 | inconclusive: 25.1% |
| Cc1ccc(-c2nc(Nc3cccc(O)c3)c3ccccc3n2)cc1 | inactive: -1.58% |
| COC(=O)c1ccc2nc(-c3ccc(C#N)cc3)c(Cc3cccc(F)c3)n2c1 | active: 40.9% |
| COC(c1ccccc1)(c1ccccc1)C(Oc1nccc(C)n1)C(=O)O (centres undefined) | inconclusive: 21.3% |

A different layout for some results above.
SMILES | CPE inhibition
COc1ccc2c(C)c(CCC(=O)NC3CC3)c(=O)oc2c1C | active: 63.2%
COc1ccc(CCN2CCC(CN3C(=S)NC[C@@H]3CC(C)C)CC2)cc1OC | inconclusive: 26.3%
O=C(Cn1cc(COc2ccccc2C(F)(F)F)nn1)c1ccc(O)cc1 | inconclusive: 60.2%
Cc1ccc(S(=O)(=O)N(C)C[C@H]2Oc3ccc(NC(=O)Nc4ccc(C(F)(F)F)cc4)cc3C(=O)N([C@H](C)CO)C[C@H]2C)cc1 | active: 44.1%
COc1ccc(NC(=O)N(C)C[C@H]2Oc3ccc(NS(C)(=O)=O)cc3C(=O)N([C@@H](C)CO)C[C@H]2C)cc1 | inconclusive: 29.9%
COc1ccc2c(c1)C(=O)N(CCc1ccc(S(=O)(=O)NC(=O)NC3CCCCC3)cc1)C(=O)C2(C)C | inconclusive: 45.4%
C#Cc1cccc(C(=O)NC2CCCN(C3Cc4ccccc4C3)C2)c1 (centres undefined) | inconclusive: 22.2%
CC[C@H](NC(=O)/C=C/[C@H]1O[C@@H](n2cc(C)c(=O)[nH]c2=O)C[C@@H]1O)c1ccccc1 | inconclusive: 61.3%
CC(=O)N(C)C[C@H]1Oc2ncc(-c3ccccc3C)cc2C(=O)N([C@H](C)CO)C[C@@H]1C | inactive: 2.03%
CCC(=O)N1[C@H](CO)[C@@H](c2ccccc2)[C@H]1CN(C(C)C)S(C)(=O)=O | inactive: -0.996%
O=C(NCCCN1CCOCC1)[C@@H]1[C@@H](CO)[C@@H]2Cn3c(cccc3=O)[C@H]1N2C(=O)C1CCCC1 | inconclusive: 32.6%
O=C(N[C@H]1CC[C@H](CC(=O)N2CCOCC2)O[C@@H]1CO)c1ccc2c(c1)OCO2 | inconclusive: 30.6%
O=C(NCc1ccco1)C1(S(=O)(=O)c2ccccc2)CC=CC1 | active: 40.6%
Cc1ccsc1C1Nc2ccccc2-c2nc3ccccc3n21 (centres undefined) | inactive: 8.09%
CN1OC[C@@H]2CN(C(=O)CCc3ccccc3)[C@H](c3cccc(Oc4ccccc4)c3)C[C@@H]21 | inconclusive: 78%
CCCNC(=O)Nc1ccc2c(c1)C(=O)N(C)[C@H]1CC[C@@H](CC(=O)OC)O[C@@H]1CO2 | inconclusive: 25.1%
Cc1ccc(-c2nc(Nc3cccc(O)c3)c3ccccc3n2)cc1 | inactive: -1.58%
COC(=O)c1ccc2nc(-c3ccc(C#N)cc3)c(Cc3cccc(F)c3)n2c1 | active: 40.9%

Continued:

| SMILES | CPE inhibition |
| --- | --- |
| CN1CCN(C(=O)c2cccc(NS(=O)(=O)c3ccc(Br)cc3)c2)CC1 | inconclusive: 67.3% |
| C[C@@H]1CCCCO[C@@H](CN(C)C)[C@@H](C)CN([C@@H](C)CO)C(=O)c2cc(NS(=O)(=O)c3ccc(F)cc3)ccc2O1 | inconclusive: 72.7% |
| CO[C@H]1CN(C)C(=O)c2cc(NC(=O)C3CCCC3)ccc2OC[C@H](C)N(C)C[C@@H]1C | inactive: -3.21% |
| Cc1c(C(=O)NNc2cc(=O)n(C)c(=O)n2C)cccc1[N+](=O)[O-] | inconclusive: 30.1% |
| Cc1ccc(C(=O)c2c3ccc([N+](=O)[O-])cc3[n+]([O-])n2CCCN)cc1 | active: 20.7% |
| COc1ccc2ccccc2c1C1CC(=O)N2CN(C3CCCCC3)CSC2=C1C#N (centres undefined) | inactive: 3.48% |
| COc1ccc(/C=N/NC(=O)c2ccncc2)cc1COc1ccc(NC(C)=O)cc1 | inconclusive: 30.1% |
| O=C(C[C@H]1C[C@@H]2c3cc(NC(=O)Nc4ccc(F)cc4)ccc3O[C@@H]2[C@@H](CO)O1)NCC1CC1 | inactive: -0.708% |
| COc1ccc(/C=N/N(C)C2=NS(=O)(=O)c3ccccc32)cc1OC | inconclusive: 29.9% |
| COCOCCn1cc(CN2CCS(=O)(=O)N(Cc3ccc(-c4ccc(OC)nc4)cc3)C(C(C)C)C2=O)nn1 (centres undefined) | inconclusive: 33.1% |
| CCCNC(=O)C1(C)CCN(C(=O)c2c(Cl)cccc2Cl)C1 (centres undefined) | inconclusive: 25.3% |
| O=C1O[C@@H](c2ccccc2)[C@@H](c2ccccc2)N2[C@@H](c3ccc(OCCO)cc3)[C@]3(C(=O)Nc4ccc(C#CC5=CCCCC5)cc43)[C@@H](C(=O)N3CCCCCCC3)[C@H]12 | inconclusive: 32.8% |
| CNC[C@@H]1Oc2cc(C#CC(C)(C)O)ccc2S(=O)(=O)N([C@@H](C)CO)C[C@H]1C | inactive: 2.59% |
| CO[C@@H]1CN(C)C(=O)c2ccc(NC(=O)NC(C)C)cc2OC[C@@H](C)N(CCC(F)(F)F)C[C@@H]1C | active: 32.8% |
| O=C(c1cc(-c2ccco2)on1)N1CCN(c2ccccc2)CC1 | inconclusive: 28.9% |
| O=C(C[C@@H]1CC[C@H](NC(=O)CC2CC2)[C@H](CO)O1)NCc1ccc(-c2ccccc2)cc1 | inactive: -1.82% |
| COC(=O)C[C@H]1CC[C@H](NC(=O)Nc2ccccc2OC)[C@@H](CO)O1 | inconclusive: 74.1% |
| COc1ccc(NC(=O)N(C)C[C@@H]2OCCCC[C@@H](C)Oc3ccc(NS(=O)(=O)c4cn(C)cn4)cc3C(=O)N([C@@H](C)CO)C[C@H]2C)cc1 | inconclusive: 23.1% |
| COc1ccc(Nc2nc(NCc3ccco3)nc(N/N=C/c3ccccc3F)n2)cc1 | inactive: -0.435% |
| CC(C)CN(C(=O)COC(=O)c1ccc(Br)cc1)c1c(N)n(Cc2ccccc2)c(=O)[nH]c1=O | inactive: -6.86% |
| C[C@@H]1CN([C@@H](C)CO)C(=O)c2cc(NS(=O)(=O)c3cccs3)ccc2O[C@@H]1CN(C)CC1CC1 | inactive: -4.63% |
| CCC(=O)N(CC(C)C)C[C@@H]1[C@@H](c2ccccc2)[C@@H](CO)N1S(C)(=O)=O | active: 28.7% |
| CC(=O)N1[C@H](CO)[C@@H](c2ccc(C3=CCCC3)cc2)[C@H]1CNC(=O)CN(C)C | inconclusive: 38.2% |

| SMILES | CPE inhibition |
| --- | --- |
| CNC[C@@H]1Oc2c(NS(=O)(=O)c3cccs3)cccc2C(=O)N([C@@H](C)CO)C[C@@H]1C | inactive: 0.007% |
| C[C@@H]1CN([C@@H](C)CO)C(=O)c2cc(N(C)C)ccc2O[C@H]1CN(C)Cc1ccc(Cl)c(Cl)c1 | inactive: -2.58% |
| COc1cc(C(=O)Nc2nnc(C(F)(F)F)s2)c([N+](=O)[O-])cc1OC | inactive: -3.6% |
| CCN(CC)CCNC(=O)C(Oc1ccccc1)Oc1ccccc1 | inconclusive: 33% |
| CCCNC(=O)CC(NS(=O)(=O)c1ccc(OC)cc1)c1ccco1 (centres undefined) | inactive: 4.6% |
| C[C@@H]1CN([C@@H](C)CO)C(=O)Cc2cc(NS(=O)(=O)c3ccc(Cl)cc3)ccc2O[C@@H]1CN(C)S(=O)(=O)c1ccc(Cl)cc1 | active: 47% |
| CCOc1ccc(-c2cc(N3C(=O)Nc4ccccc4N3O)n[nH]2)cc1 | inconclusive: 20.4% |
| O=C(CSCc1ccc(Br)cc1)Nc1ccccc1C(=O)N1CCOCC1 | inconclusive: 31.8% |
| C[C@H]1CN([C@@H](C)CO)C(=O)c2cc(-c3cccc(F)c3)cnc2O[C@H]1CN(C)S(=O)(=O)c1cccc(F)c1 | inactive: 7.73% |
| C[C@@H]1CN([C@H](C)CO)C(=O)Cc2cc(NS(=O)(=O)c3ccccc3)ccc2O[C@@H]1CN(C)Cc1ccc(Oc2ccccc2)cc1 | active: 29.9% |
| CCCN1[C@@H]2Cn3c(ccc(C4=CCCCC4)c3=O)[C@H]1[C@@H](C(=O)N1CCc3ccccc3C1)[C@@H]2CO | inactive: 9.25% |
| Cc1ccc(S(=O)(=O)Nc2ccc3c(c2)C(=O)N([C@H](C)CO)C[C@@H](C)[C@H](CN(C)C(=O)NC(C)C)O3)cc1 | inconclusive: 35.4% |
| COc1cccc(NC(=O)Nc2ccc3c(c2)C(=O)N(C)C[C@H](OC)[C@@H](C)CN(C)[C@@H](C)CO3)c1 | inactive: -2.8% |
| C[C@@H]1CN([C@@H](C)CO)C(=O)c2cc(NC(=O)Cc3cn(C)c4ccccc34)ccc2O[C@H]1CN(C)C(=O)Nc1ccc(F)cc1 | inactive: 2.17% |
| COc1ccc(S(=O)(=O)N(C)C[C@H]2Oc3ccc(NC(=O)NC4CCCCC4)cc3C(=O)N([C@H](C)CO)C[C@@H]2C)cc1 | inconclusive: 21.7% |
| O=C(Cn1cnc([N+](=O)[O-])c1)c1ccc(F)cc1 | inconclusive: 22.4% |
| C[C@@H]1CN([C@@H](C)CO)C(=O)c2cc(NS(C)(=O)=O)ccc2O[C@@H](C)CCCCO[C@@H]1CN(C)C | inconclusive: 71% |
| N#Cc1c(N2CCCCC2)nc(N)c2c(N)nc(SCC(=O)O)cc12 | inconclusive: 24.5% |
| COC(=O)c1ccc(N)c2c(N)ccc(C(=O)OC)c12 | inconclusive: 59% |
| COc1ccc2c3c(n(C)c2c1)[C@@H](CO)N(C(=O)Cc1ccccn1)CC31CCN(Cc2ccccn2)CC1 | inactive: -0.379% |
| COc1cc(NC(=O)c2cccs2)c(OC)cc1NC(=O)Nc1ccc(F)cc1 | inactive: 0.604% |
| O=C(Nc1ccc2c(c1)OCCO2)C(c1ccccc1)n1c(=O)c(-c2cc3ccccc3[nH]2)nc2ccccc21 (centres undefined) | inconclusive: 108% |
| CC(C)NC(=O)N(C)C[C@H]1Oc2ccc(NC(=O)Nc3ccccc3)cc2C(=O)N([C@H](C)CO)C[C@H]1C | inactive: 8.84% |

Looked up by compound from the entries so far, two records:

| SMILES | CPE inhibition |
| --- | --- |
| O=C(Cn1cnc([N+](=O)[O-])c1)c1ccc(F)cc1 | inconclusive: 22.4% |
| Cc1cccc(S(=O)(=O)N2C[C@H]3[C@@H](c4ccccc42)[C@H](CO)N3C(=O)CC2CC2)c1 | inconclusive: 43.6% |

From PubChem BioAssay AID651640 (Broad Institute, 2012)
